These results are taken from patent publication US9669031B2, “MNK inhibitors and methods related thereto” (eFFECTOR Therapeutics, Inc., priority 2014, dated 2017).

The nature of series [1]: in vivo. To be noted: female, Balb/c, mouse, po, 10 mg/kg.
Series [2] can be described thus: in vivo. To be noted: female, Balb/c, mouse, iv, 1 mg/kg.
The nature of series [3]: Pharmacokinetics in Balb/c mice, single oral gavage administration.

Broadly, the AUC(0-t) is the area under the concentration-time curve up to a stated or last time point. Lower therefore signals less exposure. By Cmax is commonly meant the maximum level reached in the sampled fluid or tissue. As usually defined, the half-life is how long it takes for the measured level to halve. The term AUC(0-inf) denotes total exposure, with the tail of the curve extrapolated. Low readings indicate low exposure, high ones high exposure. The term Vd denotes the apparent volume that relates the amount in the body to the concentration in plasma or blood. The low end stands for confinement near the circulation, the high end for extensive tissue distribution. As usually defined, the Tmax is the time at which the peak concentration occurs. In the series “in vivo [1]”, `Cc1cc(Nc2cc(N)ncn2)c(=O)n2c1C(=O)NC21CCC(F)(F)CC1.Cl` [Cpd. No. 103, 6-[(6-aminopyrimidin-4-yl)amino]-4′,4′-difluoro-8-methyl-spiro[2H-imidazo[1,5-a]pyridine-3,1′-cyclohexane]-1,5-dione hydrochloride] gave an AUC(0-t) of 4650 ng·h/mL, a Cmax of 2500 ng/mL and a half-life of 2.1 h. For the same molecule, in the series “in vivo [2]”, the AUC(0-inf) worked out at 600 ng·h/mL, the Vd came out at 2.49 L/kg and the half-life is 1.51 h. Further, in series [3] (Balb/c mice, oral gavage 10 mg/kg, formulation 10NMP/90PEG400, gender F), the Tlast was 8 h. For the same molecule, the Tmax in series [3] (female, Balb/c, mouse, in vivo, po, 10 mg/kg) was 0.3 h.
